Data as given in PubChem BioAssay AID652259 (Drosophila RNAi Screening Center, 2013)

Assay: 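Genome-wide hunt for genes that control Wingless pathway activity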 (primary screen)
System: Drosophila clone 8 imaginal disc epithelial cells
Reagent: long dsRNA against Drosophila genes
Challenge: pathway stimulated by co-transfected Wingless expression plasmid
Measured: 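Firefly luciferase from a tcf-site Wingless reporter, measured alongside co-transfected Renilla luciferase that tracks transfection; pathway stimulated by a Wingless plasmid; the firefly-to-Renilla ratio is not deposited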
Direction: firefly reporter light: higher = more Wg reporter light, before normalisation; Renilla control light: higher = more transfected or surviving cells
Call rule: 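a knock-down is a candidate when at least two out of four statistical tests show it departing from its plate mean; one test alone signals a weak candidate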
Calls: active = candidate regulator (raises or lowers reporter); inactive = not a candidate
The screen tested about 22,000 reagents; shown is a random part of those that have a named target and a result. Over the whole deposit, 233 (1.1%) are marked active. 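Light values are raw, unnormalised plate reads; the ratio scores behind the reporter calls were not deposited.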 The record does not give: the amount of reagent, the time to read-out, the dose of the treatment.

target | dsRNA | reporter change call, replicate 1 | firefly reporter light, replicate 1 | firefly reporter light, replicate 2 | Renilla control light, replicate 1 | Renilla control light, replicate 2 | Outcome
Cox11 (Cytochrome c oxidase copper chaperone COX11) | DRSC22692 | – | 5.17e5 | 6.10e5 | 1.91e5 | 61359 | inactive
CG8236 | DRSC16399 | – | 21120 | – | 6160 | – | inactive
CG10343 | DRSC02041 | – | 2288 | 7713 | 257 | 3858 | inactive
CG12278 | DRSC14494 | – | 12460 | – | 3402 | – | inactive
ifc (infertile crescent) | DRSC03549 | – | 10624 | – | 3908 | – | inactive
CG8086 | DRSC03078 | – | 11376 | – | 5249 | – | inactive
CG8086 | DRSC03079 | – | 2410 | 6666 | 792 | 3024 | inactive
Tctp (Translationally controlled tumor protein) | DRSC15649 | – | 15798 | – | 3674 | – | inactive
Rpt3 (Regulatory particle triple-A ATPase 3) | DRSC20283 | – | 19745 | – | 5462 | – | inactive
CG33269 | DRSC10585 | – | 5045 | – | 2298 | – | inactive
sals (sarcomere length short) | DRSC14925 | – | 12342 | – | 3346 | – | inactive
sals (sarcomere length short) | DRSC16113 | Wg reporter activity lowered | 3568 | – | 2902 | – | active
FeCH (Ferrochelatase) | DRSC16948 | – | 1772 | 7088 | 1178 | 2496 | inactive
cdm (cadmus) | DRSC16213 | – | 2176 | 4313 | 1511 | 1905 | inactive
Gr57a (Gustatory receptor 57a) | DRSC06401 | – | 4704 | – | 2438 | – | inactive
CG8079 | DRSC07070 | – | 13953 | – | 3465 | – | inactive
CG8079 | DRSC07071 | – | 6913 | – | 2099 | – | inactive
GluProRS (Glutamyl-prolyl-tRNA synthetase) | DRSC14095 | – | 4203 | 6376 | 1056 | 1856 | inactive
CG7860 | DRSC20060 | – | 2112 | 5789 | 873 | 2176 | inactive
CG13005 | DRSC19524 | – | 22352 | – | 8268 | – | inactive
kat80 (katanin 80) | DRSC20344 | – | 22579 | – | 10838 | – | inactive
kat80 (katanin 80) | DRSC20345 | – | 18163 | – | 7341 | – | inactive
Lcp9 (Larval cuticle protein 9) | DRSC04287 | – | 3453 | 6691 | 774 | 1820 | inactive
pug (pugilist) | DRSC17036 | – | 9484 | – | 2768 | – | inactive
PTPMT1 (Protein tyrosine phosphatase, mitochondrial 1) | DRSC14235 | – | 12666 | – | 14044 | – | inactive
l(2)10685 (lethal (2) 10685) | DRSC00665 | – | 10178 | – | 4403 | – | inactive
qm (quemao) | DRSC11386 | – | 2134 | 7780 | 1620 | 3721 | inactive
hiro (highroad) | DRSC08564 | – | 20896 | – | 3872 | – | inactive
CG3918 | DRSC18331 | – | 2726 | 4229 | 364 | 618 | inactive

Laid out differently: 5 of the entries above.
sals (sarcomere length short) [DRSC16113] → reporter change call, replicate 1: Wg reporter activity lowered; firefly reporter light, replicate 1: 3568; Renilla control light, replicate 1: 2902; Outcome: active
FeCH (Ferrochelatase) [DRSC16948] → firefly reporter light, replicate 1: 1772; firefly reporter light, replicate 2: 7088; Renilla control light, replicate 1: 1178; Renilla control light, replicate 2: 2496; Outcome: inactive
cdm (cadmus) [DRSC16213] → firefly reporter light, replicate 1: 2176; firefly reporter light, replicate 2: 4313; Renilla control light, replicate 1: 1511; Renilla control light, replicate 2: 1905; Outcome: inactive
Gr57a (Gustatory receptor 57a) [DRSC06401] → firefly reporter light, replicate 1: 4704; Renilla control light, replicate 1: 2438; Outcome: inactive
CG8079 [DRSC07070] → firefly reporter light, replicate 1: 13953; Renilla control light, replicate 1: 3465; Outcome: inactive
